PubChem BioAssay AID720505 | Drosophila RNAi Screening Center – 2013

Assay: 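Fly regulators or components of the CRAC channel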 (primary screen)
System: Drosophila S2R+ cells
Reagent: long dsRNA against Drosophila genes
Conditions: thapsigargin (2 µM) in calcium-free buffer to empty internal stores, then 2 mM calcium added back
Read-out: 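Stores emptied by 2 µM thapsigargin without calcium, then 2 mM calcium re-added; fluo-4 fluorescence followed by FLIPR in 384-well plates, per-well averaged endpoint, raw; two screen passes, some wells retested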
Scale: calcium signal and retest calcium signal: higher = more calcium entry after store depletion
Active means: 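Knock-downs counted as hits when calcium entry dropped relative to STIM1 positive and Rho1 negative controls present on each plate; roughly 1500 genes called, with reductions of differing size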
Meaning of the calls: active = called as lowering calcium entry; inactive = not called
The screen tested about 20,000 reagents; this is an unselected part of those with a known target gene and a result. Over the whole deposit, about 2,100 (10%) are marked active. 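Raw plate signals without normalisation; calls rest on control-based scores that were not deposited; replicate 2 separates called from uncalled poorly.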 Entries without a mark were called inactive. Reagents against one gene are numbered here. A plus sign joins genes that one reagent is predicted to hit. Not stated in the record: the amount of reagent, the time to read-out.

Irp-1B — calcium signal, replicate 1 = 170; calcium signal, replicate 2 = 137
5-HT1A — calcium signal, replicate 1 = 101; calcium signal, replicate 2 = 124
mid #1 — calcium signal, replicate 1 = 94.5; calcium signal, replicate 2 = 108; retest calcium signal, replicate 1 = 83; retest calcium signal, replicate 2 = 95.2
mid #2 — calcium signal, replicate 1 = 131; calcium signal, replicate 2 = 95.6
CG17977 — calcium signal, replicate 1 = 90.5; calcium signal, replicate 2 = 86.2
CG15283 — calcium signal, replicate 1 = 96; calcium signal, replicate 2 = 140
Rpt4R — calcium signal, replicate 1 = 92.4; calcium signal, replicate 2 = 94.5

Sorted by “calcium signal, replicate 1” (highest first): some entries from above
Irp-1B — calcium signal, replicate 1 = 170; calcium signal, replicate 2 = 137
5-HT1A — calcium signal, replicate 1 = 101; calcium signal, replicate 2 = 124

Continued.
klg — calcium signal, replicate 1 = 231; calcium signal, replicate 2 = 200
CCT7 — calcium signal, replicate 1 = 121; calcium signal, replicate 2 = 169
p120ctn — calcium signal, replicate 1 = 81.6; calcium signal, replicate 2 = 158
CG8677 — calcium signal, replicate 1 = 124; calcium signal, replicate 2 = 93.6
CG32820 + CG17450 + CG32819 #1 — calcium signal, replicate 1 = 58.8; calcium signal, replicate 2 = 93.7
CG32820 + CG17450 + CG32819 #2 — calcium signal, replicate 1 = 86.1; calcium signal, replicate 2 = 78.6
CG13148 — calcium signal, replicate 1 = 137; calcium signal, replicate 2 = 190
CG11414 — calcium signal, replicate 1 = 194; calcium signal, replicate 2 = 112
mgl #1 — calcium signal, replicate 1 = 80.2; calcium signal, replicate 2 = 82
mgl #2 — calcium signal, replicate 1 = 130; calcium signal, replicate 2 = 121
mgl #3 — calcium signal, replicate 1 = 110; calcium signal, replicate 2 = 86.2
mgl #4 — calcium signal, replicate 1 = 117; calcium signal, replicate 2 = 99.4
